Data on one substance can be found in PMC10204161.

Amino acid sequences for entries named in this document (tags omitted). Residues count along the entry.
UniProt P05161, residues 1-157: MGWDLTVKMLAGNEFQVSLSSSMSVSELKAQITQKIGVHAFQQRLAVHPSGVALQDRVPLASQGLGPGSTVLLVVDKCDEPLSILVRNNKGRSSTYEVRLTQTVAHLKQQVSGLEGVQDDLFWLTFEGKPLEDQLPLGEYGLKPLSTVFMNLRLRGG
UniProt Q9NZQ7, residues 19-290: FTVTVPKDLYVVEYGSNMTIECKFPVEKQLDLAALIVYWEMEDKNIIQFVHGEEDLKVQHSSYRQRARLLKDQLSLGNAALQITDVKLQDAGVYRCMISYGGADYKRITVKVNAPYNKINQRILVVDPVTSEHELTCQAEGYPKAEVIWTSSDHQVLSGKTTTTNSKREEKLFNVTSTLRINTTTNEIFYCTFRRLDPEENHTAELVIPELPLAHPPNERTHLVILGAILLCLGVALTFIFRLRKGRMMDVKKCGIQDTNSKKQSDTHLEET

The test deals with Interferon-stimulated gene 15 (ISG15) (human) (UniProt P05161). Briefly: co-IP; 4 ug anti-ISG15 antibody or anti-IgG antibody added to cell lysates, 12 h at 4 C; precipitate resolved by SDS-PAGE and probed with anti-PD-L1 antibody.

No constants are given. Whether binding was seen depends on the method and setting. In cells and extracts the contact can be indirect. Some results given as binding are weak or reduced against the parent protein; the word gives no strength.

In the case of “Programmed cell death-ligand 1 (PD-L1) (from UniProt Q9NZQ7 19-290)”, the binding result is reported as “binds”.
